{
  "source": "the supplement of paper PMC4807443",
  "note": "Counter-ions that a name gives are not always drawn. The list shows a part of the results. The numbers are fractions of the control, whatever unit the source prints. Most values lie at the level of the controls, where differences are scatter.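 MIN6, a mouse insulinoma beta-cell line, stably carries a lentiviral reporter where Pdx1 and Ins1 promoters each drive a nuclear fluorescent protein; Hoechst staining and automated imaging counted cells. Drugs were candidate hits if Ins1 promoter readout exceeded two median absolute deviations from DMSO controls while Pdx1 activity stayed near normal.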",
  "data": [
    {"system": "MIN6", "assay": "% Pdx1+ Ins1-low (RFP-only, immature) cells relative to DMSO control (fold of DMSO control); higher = more immature Pdx1+/Ins1-low cells", "conditions": "8.5 µM; 48 h; glucose 5 mM", "values": [
      {"smiles": "CC(=O)NC(CC(=O)O)C(=O)O", "note": "(racemic) [Aspartic acid, N-acetyl (R,S)]", "% Pdx1+ Ins1-low": 0.891},
      {"smiles": "COc1c(C)c2c(c(O)c1C/C=C(\\C)CCC(=O)O)C(=O)OC2", "note": "[Mycophenolic acid]", "% Pdx1+ Ins1-low": 1.07},
      {"smiles": "Cc1onc(-c2c(F)cccc2Cl)c1C(=O)N[C@@H]1C(=O)N2[C@@H]1SC(C)(C)[C@@H]2C(=O)O", "note": "[Flucloxacillin sodium]", "% Pdx1+ Ins1-low": 0.788},
      {"smiles": "CN(C)CCCSC(=N)N", "note": "[Dimaprit dihydrochloride]", "% Pdx1+ Ins1-low": 0.718},
      {"smiles": "CNCCCC12CCC(c3ccccc31)c1ccccc12", "note": "[Maprotiline hydrochloride]", "% Pdx1+ Ins1-low": 1.05},
      {"smiles": "OC(c1cc(C(F)(F)F)nc2c(C(F)(F)F)cccc12)C1CCCCN1", "note": "(stereo not drawn) [Mefloquine hydrochloride]", "% Pdx1+ Ins1-low": 0.736},
      {"smiles": "C[C@@H]1C[C@H]2[C@@H]3C[C@H](F)C4=CC(=O)C=C[C@]4(C)[C@@]3(Cl)[C@@H](O)C[C@]2(C)[C@H]1C(=O)COC(=O)C(C)(C)C", "note": "[Clocortolone pivalate]", "% Pdx1+ Ins1-low": 1.07},
      {"smiles": "C[C@@H](O)[C@H]1C(=O)N2C(C(=O)O)=C(S[C@@H]3CN[C@H](C(=O)N(C)C)C3)[C@H](C)[C@H]12", "note": "[Meropenem]", "% Pdx1+ Ins1-low": 1.13},
      {"smiles": "CC1(C)O[C@@H]2C[C@H]3[C@@H]4CCC5=CC(=O)CC[C@]5(C)[C@@]4(F)[C@@H](O)C[C@]3(C)[C@]2(C(=O)CCl)O1", "note": "[Halcinonide]", "% Pdx1+ Ins1-low": 1.15},
      {"smiles": "C[C@]12C=CC(=O)C=C1CC[C@H]1[C@@H]3C[C@@H](O)[C@](O)(C(=O)CO)[C@@]3(C)C[C@H](O)[C@@]12F", "note": "[Triamcinolone]", "% Pdx1+ Ins1-low": 1.14},
      {"smiles": "CCOc1cc(CC(=O)N[C@@H](CC(C)C)c2ccccc2N2CCCCC2)ccc1C(=O)O", "note": "[Repaglinide]", "% Pdx1+ Ins1-low": 0.746},
      {"smiles": "CCCCN(CCCC)CCC(O)c1cc2c(Cl)cc(Cl)cc2c2cc(C(F)(F)F)ccc12", "note": "(stereo not drawn) [Halofantrine hydrochloride]", "% Pdx1+ Ins1-low": 1.17},
      {"smiles": "CC(C)(C)NC(=O)[C@@H]1C[C@@H]2CCCC[C@@H]2CN1C[C@@H](O)[C@H](Cc1ccccc1)NC(=O)[C@H](CC(N)=O)NC(=O)c1ccc2ccccc2n1", "note": "[Saquinavir mesylate]", "% Pdx1+ Ins1-low": 0.642},
      {"smiles": "CCCCCN(CCCCC)C(=O)C(CCC(=O)O)NC(=O)c1ccc(Cl)c(Cl)c1", "note": "(stereo not drawn) [Lorglumide sodium salt]", "% Pdx1+ Ins1-low": 0.591},
      {"smiles": "Nc1nc2c(ncn2COCCO)c(=O)[nH]1", "note": "[Acyclovir]", "% Pdx1+ Ins1-low": 1.28},
      {"smiles": "COc1ccc(C(=O)c2ccccc2)c(O)c1", "note": "[Oxybenzone]", "% Pdx1+ Ins1-low": 0.795},
      {"smiles": "COc1ncnc(NS(=O)(=O)c2ccc(N)cc2)c1OC", "note": "[Sulfadoxine]", "% Pdx1+ Ins1-low": 0.739},
      {"smiles": "CC(=O)OCC(=O)[C@@]1(O)[C@H](C)C[C@H]2[C@@H]3CCC4=CC(=O)C=C[C@]4(C)[C@@]3(F)[C@@H](O)C[C@@]21C", "note": "[Dexamethasone acetate]", "% Pdx1+ Ins1-low": 0.9}
    ]}
  ]
}
